{"source": "patent US4105659A", "about": "“1,2,3,4,5,6-Hexahydro-2,6-methano-3-benzazocines” (Sterling Drug Inc., priority 1964, dated 1978)", "experiment": "Solubility, pH of solution and precipitation on pH adjustment or dilution", "format": "physicochemical", "description": "A. A mixture of 8.7 g. of racemic cis 1,2,3,4,5,6-hexahydro-6,11-dimethyl-8-hydroxy-2,6-methano-3-benzazocine (which is also known as racemic cis 2'-hydroxy-5,9-dimethyl-6,7-benzomorphan), 6.0 g of 1-bromo-3-methyl-2-butene, 5.0 g. of sodium bicarbonate, and 125 ml. of N,N-dimethylformamide was stirred and refluxed for approximately 41/2 hours. The reaction mixture was then filtered, and the solid on the filter was washed with ethanol. The filtrate and the wash liquor were combined, concentrated under reduced pressure, and then extracted with chloroform. The chloroform extract was concentrated under reduced pressure to yield a syrup which weighed 15.8 g. This syrup was dissolved in 120 ml. of diethyl ether and the resulting solution was filtered to remove approximately one-half gram of a brown amorphous solid. The filtrate was extracted with a mixture of 5 ml. of concentrated hydrochloric acid and 20 ml. of water. To the extract there was added 5 ml. of concentrated ammonium hydroxide solution and ice. A pale tan syrup separated from solution and after stirring, this syrup solidified. The resulting pale tan solid was collected and dried; it weighed 10.6 g. After two recrystallizations from a mixture of methyl alcohol and water, with charcoaling, this solid weighed 8.2 g. and melted at 145°-147° C. […]", "note": "Where a name gives a salt, the structure may show the parent alone. At least one structure is not confirmed: it was looked up by name or label, or the drawing left a doubt.", "data": [{"smiles": "CC(C)=CCN1CC[C@@]2(C)c3cc(O)ccc3C[C@@H]1[C@H]2C", "note": "(relative stereo) [4E (racemic) hydrobromide, trans 1,2,3,4,5,6-hexahydro-3-(3-methyl-2-butenyl)-6,11-dimethyl-8-hydroxy-2,6-methano-3-benzazocine]", "values": [{"measurement": "pH of the diluted solution", "setting": "1 percent ethanol solution diluted with four volumes of water", "value": 5.3}, {"measurement": "precipitation on addition of four volumes of water", "setting": "1 percent ethanol solution plus four volumes of water", "value": "no precipitate being formed"}]}]}
